54 sequences from PMC7819943, “Rice protein-binding microarrays: a tool to detect cis-acting elements near promoter regions in rice” can be followed below.

The list shows a part of the results.

The test concerns the target T1, OsSMF1 (Oryza sativa, UniProt Q6ZLB0 1-436).
T1 sequence: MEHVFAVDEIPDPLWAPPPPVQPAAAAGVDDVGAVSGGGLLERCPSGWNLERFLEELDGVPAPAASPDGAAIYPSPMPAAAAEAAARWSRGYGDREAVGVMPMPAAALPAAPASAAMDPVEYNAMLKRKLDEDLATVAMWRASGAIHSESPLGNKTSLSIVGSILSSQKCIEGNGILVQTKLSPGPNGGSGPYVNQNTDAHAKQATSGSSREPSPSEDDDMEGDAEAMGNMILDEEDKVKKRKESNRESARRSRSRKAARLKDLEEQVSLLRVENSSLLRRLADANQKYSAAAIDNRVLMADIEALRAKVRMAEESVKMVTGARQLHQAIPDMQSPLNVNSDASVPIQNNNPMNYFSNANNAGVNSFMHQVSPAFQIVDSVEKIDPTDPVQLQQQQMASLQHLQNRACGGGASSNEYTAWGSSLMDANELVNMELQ
Kind of test: protein-binding microarray (RPBM); PBS, 2% BSA, 51.3 ng/ul salmon testes DNA, 50 uM zinc acetate, 200 nM TF, 25 C, 1 h; high values mean tight binding. Conditions: protein: recombinant; tags: N-terminal polyhistidine and DsRed monomer fusion (pET32a); chain copies: 2; label: CyDye5-dUTP incorporated in the synthesized complementary strand; 3' TTTTT single-stranded linker to array surface; dsDNA, one strand shown. In outline: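 Transcription factors were each fused at the N-terminus to a polyhistidine tag plus DsRed and expressed in E. coli BL21-CodonPlus before Ni–NTA purification. Binding to a double-stranded custom Agilent array was carried out with 200 nM protein at 25 °C for 1 h in PBS, 2% BSA, salmon testes DNA and 50 µM zinc acetate. The binding signal is per-feature fluorescence intensity, in arbitrary units, on an Axon 4000B scanner.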
For the sequence “AGCACCCACGTGGCGAAATCCTAACCGTCCACGTGGATCCCGGAGTCACCTAGTGCAG”, the binding signal was 17600 fluorescence intensity (a.u.).
Next, “AACCCTGTGGCCACTGCCAAGAAGCCGGTGGTGGTGGTGGCGGAGTCACCTAGTGCAG”: 24800 fluorescence intensity (a.u.); “TACTGGATCTCTGCTTCTGACCAAAATGTTCCGCATTGAACGGAGTCACCTAGTGCAG”: 35300 fluorescence intensity (a.u.); “GGGGAGCACCTGGGCCGGTGGATGAGGCTTAGCATGGATCCGGAGTCACCTAGTGCAG”: 3200 fluorescence intensity (a.u.).
The figure for “GCTCGATCTCCGACGTCATGCGCCGCTCGCTGCCCGTCGACGGAGTCACCTAGTGCAG” is 3820 fluorescence intensity (a.u.); for “GAGTTTGATAGCTTAGCAGAAATAGTTTTGCTGACGTGGCCGGAGTCACCTAGTGCAG” it is 40700 fluorescence intensity (a.u.); for “ATTCCAGCCCGGCCCGAATACGTGGATGGGCCAAAATTGGCGGAGTCACCTAGTGCAG” it is 3430 fluorescence intensity (a.u.).
Regarding “ACAGTTGTTGGAAGTGTAAGACTGACATGGCCAACGATCCCGGAGTCACCTAGTGCAG”, the binding signal is 4190 fluorescence intensity (a.u.).
Regarding “ACCAGCACTTCTACAACCTCAATGACACAGCCATGCTCAGCGGAGTCACCTAGTGCAG”, the binding signal is 3560 fluorescence intensity (a.u.).
The figure for “GCAACCACAACCACCAACGACGCCGATCGATCGAGCCAACCGGAGTCACCTAGTGCAG” is 3340 fluorescence intensity (a.u.); for “AGAGACCGAGTTCCCAAATCCCAACGGCCCAACCTGATCCCGGAGTCACCTAGTGCAG” it is 4110 fluorescence intensity (a.u.).
The figure for “ACAGCGATGGCGGCGTCGAGAGATCTCCGGCTCACCACCGCGGAGTCACCTAGTGCAG” is 3320 fluorescence intensity (a.u.).
The figure for “ATAGAGATTTATTTTATCATAGTTTATTTTCAAGCCTTATCGGAGTCACCTAGTGCAG” is 19800 fluorescence intensity (a.u.); for “AAGAAGTACCACTCAACGATACATTTAGGAGCGTCAAGATCGGAGTCACCTAGTGCAG” it is 3290 fluorescence intensity (a.u.).
As to “TAAGCTAATGCTAACAACCGCACCACGTGTTCGGCCCGGACGGAGTCACCTAGTGCAG”, the binding signal was 6030 fluorescence intensity (a.u.).
The figure for “GCGTCCCGGTAGCCGCCAGCTCAGCGCGCACGCAGCCATCCGGAGTCACCTAGTGCAG” is 5430 fluorescence intensity (a.u.); for “CCATGGGAGCGGCTGCCGTGGACGCGAACGGCATCTCCTTCGGAGTCACCTAGTGCAG” it is 3160 fluorescence intensity (a.u.).
The figure for “TATGGTGTGCAGATGGATACCTGATCTTATCTAATATTGTCGGAGTCACCTAGTGCAG” is 3190 fluorescence intensity (a.u.); for “GTGGTGGTAGTAGTAGTAGTAGTACCGTACAAGCCGCCCTCGGAGTCACCTAGTGCAG” it is 23400 fluorescence intensity (a.u.).
Next, “CGCATCTTGCAGAGGACACACGTGCCTCATCAGGGGATTACGGAGTCACCTAGTGCAG”: 3960 fluorescence intensity (a.u.); “TGCGGACTCCCTCGAGGTCCATCCTGTTTGATATCAGCTCCGGAGTCACCTAGTGCAG”: 4120 fluorescence intensity (a.u.).
Turning to “AGCCAGAATGTACCGTTGGTACCACGTACTGATCCTATCCCGGAGTCACCTAGTGCAG”, the binding signal is 7420 fluorescence intensity (a.u.).
Next, “TGAGCAGGACCTTGTCCTGCGCCACGTGGAAGAGCGCTCCCGGAGTCACCTAGTGCAG”: 12000 fluorescence intensity (a.u.); “GTGAGTGTGGTGTGTGCACGCCTGATCCTATACTCGAAATCGGAGTCACCTAGTGCAG”: 3430 fluorescence intensity (a.u.).
Next, “TTCAGCCCGTGACACTGATGTATTTGTAGTGTTGTGAGCCCGGAGTCACCTAGTGCAG”: 3520 fluorescence intensity (a.u.); “ATAGCCCTATACTCACTGACATGTGGACCCCACTTAAATACGGAGTCACCTAGTGCAG”: 3360 fluorescence intensity (a.u.); “CCGCACAGAGCACACGCCTCCCCGCACGCCACCGTGACGACGGAGTCACCTAGTGCAG”: 18700 fluorescence intensity (a.u.).
Next, “TTAGCTGTGTGTGTTCTTACGCTTGGGTTGGCGATTGAATCGGAGTCACCTAGTGCAG”: 3830 fluorescence intensity (a.u.).
As to “CCACACACGGCCGTCGCTGACTCACCGATGCACCATCGCCCGGAGTCACCTAGTGCAG”, the binding signal is 17500 fluorescence intensity (a.u.).
The figure for “GATTCACAACGATTGCTCTGTTTTGCGTGACACAAGGGCTCGGAGTCACCTAGTGCAG” is 7400 fluorescence intensity (a.u.).
Next, “TTCTAAGAAATCTATATATAGATTTATTATTATTATTTTGCGGAGTCACCTAGTGCAG”: 8080 fluorescence intensity (a.u.).
Take “TATCTAAATGACATGACTCACTTAGATCCTAATAGGACATCGGAGTCACCTAGTGCAG”: the binding signal is 3370 fluorescence intensity (a.u.).
The figure for “GCCCCGCGGCTTCCGGCTGCCGTCGCCGCGAGCCCCGTGGCGGAGTCACCTAGTGCAG” is 5050 fluorescence intensity (a.u.); for “CACCCGATCCACGTGCCTCGTGGGGTTGGTTTGGTTTGGACGGAGTCACCTAGTGCAG” it is 5250 fluorescence intensity (a.u.); for “CATCATCCGCGCGCGTGTGGACCAGGACGCGCGGGCGGGGCGGAGTCACCTAGTGCAG” it is 3710 fluorescence intensity (a.u.).
Next, “GAGGAGATGACCGTAGCAGTAGTAATGCAAGGCTGGAACGCGGAGTCACCTAGTGCAG”: 3660 fluorescence intensity (a.u.).
The figure for “TATATATTTATAACTCTAACATAGACACACATATATAATTCGGAGTCACCTAGTGCAG” is 7580 fluorescence intensity (a.u.); for “ACATACAGCGTGGCACGAGGATATGCCCCTGCATCCGGTGCGGAGTCACCTAGTGCAG” it is 5680 fluorescence intensity (a.u.); for “AGAATAATCTTTGGGCTGCATAACCTGGAACTCATTTCGTCGGAGTCACCTAGTGCAG” it is 33400 fluorescence intensity (a.u.).
Regarding “GTTCTCTCCCCGTGGTCCCGAGTCCCGACGGCTGCTGCCACGGAGTCACCTAGTGCAG”, the binding signal was 3230 fluorescence intensity (a.u.).
Next, “ATCCGACGGCGCCCCGCCCCTCCACGTCGCCGTCGTCTTCCGGAGTCACCTAGTGCAG”: 6920 fluorescence intensity (a.u.); “CGCGAGGGCGTGGTGGTGGTGGTGGTCGTCATCATCGACGCGGAGTCACCTAGTGCAG”: 4150 fluorescence intensity (a.u.); “GAATTGAGCTGAGTGCCACGTCAGTTGAAACCGCCGTCCACGGAGTCACCTAGTGCAG”: 11800 fluorescence intensity (a.u.).
The figure for “AAACGCTACTACCCCTCCGCCACAGCGTCCACACCCGCGCCGGAGTCACCTAGTGCAG” is 25600 fluorescence intensity (a.u.); for “AAACGGAAAACAAAAGTTAATTCCTCAGTAACTCTCCACCCGGAGTCACCTAGTGCAG” it is 3500 fluorescence intensity (a.u.).
The figure for “CAATATATTTATTGTATATGTATCTTTAGAAGCTGATTCACGGAGTCACCTAGTGCAG” is 4160 fluorescence intensity (a.u.); for “GCGTTTCTTGGACGTGAGGTGGATGAGGCTCGCCACCGGCCGGAGTCACCTAGTGCAG” it is 4030 fluorescence intensity (a.u.).
As to “GGGGACGCAGGAGGAGGTGGGTGGGTCGAGCTCGCTTGCGCGGAGTCACCTAGTGCAG”, the binding signal is 3300 fluorescence intensity (a.u.).
Next, “TGGTGTTTGTTTTGTACCGCCACCTCAGGAATCAAAGCCCCGGAGTCACCTAGTGCAG”: 6630 fluorescence intensity (a.u.); “AGTGAAGACACTCGCCAAGAATCTCAAGGAAAATACCAGTCGGAGTCACCTAGTGCAG”: 3430 fluorescence intensity (a.u.).
Next, “TCGTCGACTACGTGTTGGTGTTTCATGCCGCCAAGTCGACCGGAGTCACCTAGTGCAG”: 5250 fluorescence intensity (a.u.).
The figure for “AGCCTCTTCCCGCGGTCCCGCCCAGTTCGTTGGCGTGTACCGGAGTCACCTAGTGCAG” is 10600 fluorescence intensity (a.u.); for “ATCAGAACCGCCACTCAAGTTTCAGTAGTTTGGTCTTGTACGGAGTCACCTAGTGCAG” it is 3790 fluorescence intensity (a.u.).
Regarding “ACTGTAGCATGACTAAAGTGTGACATGGCAAAATGTGGCACGGAGTCACCTAGTGCAG”, the binding signal is 13300 fluorescence intensity (a.u.).
